The nature of this assay: qHTS Assay for Lipid Storage Modulators in Drosophila S3 Cells.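 For cell number change: cells counted by Cell Tracker Red CMTPX staining in the red channel.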 Conditions: BODIPY lipid droplet fluorescence, 18-24 h; for cell number change: measured here: cell count max response, cells fed with added oleic acid. Put shortly: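 Drosophila S3 cells got compounds at several concentrations plus oleic acid (400 uM solution). Laser-scanning cytometry with 488 nm excitation read lipid droplets at 500-530 nm and cells at 575-640 nm. Percent activity was relative to 20 uM Triacsin C.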
Background: qHTS replaces the single test concentration by a dilution series.

Where [1] appears, read: measured here: cell number channel AC50, cells fed with added oleic acid.
Setting [2] is: measured here: lipid fluorescence (Fed channel) AC50, cells fed with added oleic acid.

Where “and” joins values, the source holds several entries; their conditions need not be identical. Equal values may be shown once. Some of the results follow. Further columns of the screen follow, without active or inactive calls. Most of these compounds were active or inconclusive in the main read-out, so they are no random draw. The note in brackets gives the kind of curve behind each potency; many fits are weak.

The AC50 is the concentration at which the activity in the assay is half-maximal. A lower AC50 goes with activity at low concentration. For the compound `CNCCc1c[nH]c2ccccc12`, the AC50 under setting [1] is 4.61 µM [rising, single point].

With `CCOC(=O)C(O)(c1ccc(NC(=S)NC(=O)c2ccc(Cl)cc2Cl)cc1)C(F)(F)F` (configuration not stated), the cell number change was -33.8%. In addition, the AC50 under setting [1] was 32.6 µM [falling, single point].

With `O=c1[nH]c(CN2CCNCC2)nc2ccccc12`, the cell number change was -2.38%.

For `CCN(CC)P(=S)(c1c(C)nc2ccccn12)c1c(C)nc2ccccn12`, the cell number change is -8.64%.

With `COc1ccccc1CC1C(=O)C2CCN1CC2` (configuration not stated), the cell number change was 14.6%.

`COC(=O)C1=C(c2c(C)noc2C)C[C@@H]2CC[C@H]1N2C(=O)N1CCCCC1`: the cell number change is -19.3%. Under setting [1], the AC50 was 2.06 µM [falling, single point]. The AC50 under setting [2] is 0.184 µM [rising, full curve, poor fit].

Consider `CC(C)n1c(O)c(C2c3cc(Cl)ccc3Oc3[nH]c(=O)n(C(C)C)c(=O)c32)c(=O)[nH]c1=O` (configuration not stated), for which the cell number change is -46.8%. Further, the AC50 under setting [1] was 16.4 µM [falling, single point]. Also, under setting [2], the AC50 is 18.4 µM [falling, single point].

On to `CN(C)CCCNCC(=O)Nc1ccc(Cl)cc1C(=O)c1ccccc1`, for which the cell number change turned out to be 19.2%.

As to `C=CCn1c(O)c(C(C)=NCCCn2ccnc2)c(=O)[nH]c1=O`, the cell number change stood at 23.2%.

For the compound `O=C(NC(C(Cl)Cl)N1CCOCC1)c1ccccc1` (configuration not stated), the cell number change was determined as 30.8%. Further, the AC50 under setting [1] was 32.6 µM [rising, single point].

On to `O=c1cccc2n1CC1CC2CN(S(=O)(=O)c2cc(Cl)ccc2Cl)C1` (configuration not stated), for which the AC50 by setting is: under setting [1], 6.51 µM [rising, single point]; under setting [2], 0.231 µM [rising, single point].

For `Cc1cc(S(=O)(=O)NCC(C)C)ccc1OCC(=O)N1CCN(Cc2ccccc2)CC1`, the cell number change was -21.8%. Further, the AC50 under setting [2] is 16.4 µM [falling, single point].

Consider `Clc1cccc(CNCCc2c[nH]c3ccccc23)c1`, for which the cell number change is -35.2%. The AC50 under setting [1] is 29.1 µM [falling, single point].

In the case of `CCOC(=O)N(c1ccccc1)P1(=S)OCC(C)O1` (configuration not stated), the cell number change is -6.09%. Under setting [1], the AC50 is 0.00517 µM [falling, full curve, poor fit].

For `Cc1cc(Cc2ccc(N)c(C)c2)ccc1N`, the AC50 under setting [1] is 0.00517 µM [rising, full curve, poor fit].

Consider `Cc1nn(Cc2ccccc2)c(C)c1C(=O)OCC(=O)Nc1cc(S(C)(=O)=O)ccc1Cl`, for which the cell number change came to 25.8%. Also, the AC50 under setting [2] is 29.1 µM [rising, single point].

As to `COC(=O)C1=C(c2cccc(OCc3ccccc3)c2)C[C@@H]2CC[C@H]1N2C(=O)NCCCc1ccccc1`, the cell number change turned out to be 2.76%. Under setting [1], the AC50 is 1.84 µM [rising, partial curve, poor fit].

Take `CC[n+]1c(SC)ccc2cc(OC)ccc21`: the AC50 runs as follows: under setting [1], 1.03 µM [rising, full curve]; under setting [2], 5.8 µM [rising, single point].

With `CCOc1cc2c(cc1OCC)-n1cccc1C(c1cc(C)c(OC)cc1C)NC2` (configuration not stated), the cell number change stood at 16.7%. Under setting [1], the AC50 was 1.84 µM [rising, partial curve]. Also, under setting [2], the AC50 was 13 µM [falling, partial curve].

Consider `Cc1ccc(S(=O)(=O)N(C)C/N=C(\N)N[N+](=O)[O-])cc1`, for which the cell number change was -14.9%. For the same compound, the AC50 under setting [2] is 0.461 µM [falling, full curve].

For `COC(=O)C1=Nc2ccccc2/C1=C\c1c(O)n(-c2ccc(OC)cc2)c(=O)[nH]c1=O`, the cell number change was -24.9%. The AC50 under setting [2] was 6.51 µM [falling, single point].

Regarding `Cc1ccc(-n2c(C)cc(/C=C3/C(=O)NC(=O)N(C)C3=O)c2C)cc1`, the cell number change was -40.4%. Besides, the AC50 under setting [1] is 29.1 µM [falling, single point].

In the case of `CN(C)C(=O)Oc1ccc2c(c1)O/C(=C\c1cccc([N+](=O)[O-])c1)C2=O`, the AC50 under setting [1] was 0.58 µM [rising, single point].

Consider `C1CCC2CCCCC2C1` (configuration not stated), for which the cell number change is 8.41%. Under setting [1], the AC50 was 0.13 µM [falling, single point].

With `Cc1c(N=Nc2c(O)n(-c3ccc(Br)cc3)c(=O)[nH]c2=O)c(=O)n(-c2ccccc2)n1C`, the cell number change was 33%. Also, the AC50 under setting [1] is 23.1 µM [rising, single point].

In the case of `CN1C(=O)NC(=O)/C(=C\C=C\c2ccccc2[N+](=O)[O-])C1=O`, the cell number change is -60.5%. In addition, under setting [1], the AC50 is 23.1 µM [falling, single point]. Further, under setting [2], the AC50 was 20.6 µM [falling, single point].

Regarding `COC(=O)C1=C(c2ccc(OC(F)(F)F)cc2)C[C@@H]2CC[C@H]1N2C(=O)N1CCCCC1`, the cell number change was -7.31%. For the same compound, the half-maximal activity concentration (AC50) under setting [1] was 6.51 µM [falling, single point]. Besides, the AC50 under setting [2] was 3.26 µM [falling, single point].

Turning to `CC1(CCl)CN1S(=O)(=O)c1ccccc1` (configuration not stated), the cell number change was -37.8%. Besides, the AC50 under setting [1] was 6.51 µM [falling, full curve].

As for `COc1cc(/C=C/[N+](=O)[O-])ccc1O`, the cell number change was -52%. Moreover, the AC50 under setting [1] is 13 µM [falling, partial curve]. Moreover, the AC50 under setting [2] was 5.8 µM [falling, full curve].

On to `CN1CCC(N2CC3CC(C2)c2cccc(=O)n2C3)CC1` (configuration not stated), for which the cell number change was -19.2%. In addition, the concentration at half-maximal activity (AC50) under setting [2] is 32.6 µM [falling, single point].

Consider `O=C(O)c1ccc(NC(=O)N2C[C@H]3C[C@@H](C2)c2cccc(=O)n2C3)cc1`, for which the cell number change stood at 30.6%. Further, under setting [1], the AC50 was 13 µM [rising, partial curve].

As to `CCCCCCC[n+]1ccc(-c2cc[n+](CCCCCCC)cc2)cc1`, the cell number change was -36%. Moreover, the AC50 under setting [1] was 20.6 µM [falling, single point]. In addition, under setting [2], the AC50 was 25.9 µM [falling, single point].

In the case of `O=c1[nH]c(=S)n(-c2ccc(Cl)cc2)c(O)c1/C=N/N1CCOCC1`, the cell number change was -34.8%. The concentration at half-maximal activity (AC50) under setting [1] was 29.1 µM [falling, single point]. Also, under setting [2], the AC50 was 32.6 µM [falling, single point].

Regarding `COc1ccc(CNC(=O)Cn2c(=O)oc3cc(S(=O)(=O)N4CCCC4)ccc32)cc1`, the AC50 under setting [1] is 4.11 µM [falling, full curve, poor fit].

Turning to `Cc1ccc(/C=C2\C(=O)NC(=S)N(c3ccc(F)cc3)C2=O)o1`, the cell number change is 31.1%. In addition, the concentration at half-maximal activity (AC50) under setting [1] is 32.6 µM [rising, single point]. The AC50 under setting [2] is 29.1 µM [rising, single point].

Turning to `Cc1nc2ccccc2c(=O)n1-c1cccc([N+](=O)[O-])c1`, the cell number change turned out to be 14.2%. Under setting [2], the AC50 is 29.1 µM [rising, single point].

Take `Cn1cc(C(=O)c2ccccc2)c2ccccc21`: the cell number change was -2.45%. Moreover, the AC50 under setting [1] was 0.00517 µM [falling, full curve, poor fit].

With `Cc1ccsc1C(=O)C1CCCN(Cc2ccn[nH]2)C1` (configuration not stated), the cell number change turned out to be 6.59%. For the same compound, the AC50 under setting [2] was 0.00411 µM [rising, full curve, poor fit].

For `O=[N+]([O-])c1ccc(-[n+]2c(-c3ccccc3)cc(-c3ccccc3)cc2-c2ccccc2)cc1`, the cell number change was -29%. Also, the AC50 under setting [2] was 11.6 µM [falling, single point].

`COc1ccc2[nH]c(C)c(CCN3CCC(=O)C(C)C3C)c2c1` (configuration not stated): the cell number change came to 17%. Besides, the AC50 under setting [2] is 0.00517 µM [rising, full curve, poor fit].

As to `COC(=O)C1=C(c2ccc(OC(F)(F)F)cc2)C[C@@H]2CC[C@H]1N2C(=O)NCc1ccc(F)cc1`, the cell number change is -44%. The AC50 under setting [1] is 25.9 µM [falling, single point]. Further, the AC50 under setting [2] is 4.61 µM [falling, single point].

For `CCOc1cc2c(cc1OCC)-n1cccc1C(c1cccc(F)c1F)NC2` (configuration not stated), the cell number change came out at 56.3%. In addition, the AC50 under setting [1] was 29.1 µM [rising, single point].

On to `COc1cc(/C=C2\C(=O)NC(=O)N(c3ccccc3)C2=O)cc(OC)c1OC`, for which the AC50 under setting [2] is 0.58 µM [falling, full curve].

As to `O=c1[nH]c(=S)[nH]c(O)c1N=Nc1cc(S(=O)(=O)Nc2ccc(Cl)cc2)ccc1Cl`, the cell number change was -51.9%. Also, under setting [1], the AC50 is 23.1 µM [falling, partial curve]. For the same compound, the AC50 under setting [2] was 0.58 µM [falling, full curve].

Regarding `O=C(Cn1cnc2ccccc2c1=O)NCC(=O)N1CCC2(CC1)OCCO2`, the cell number change was -9.2%. In addition, the AC50 under setting [1] is 0.231 µM [falling, full curve, poor fit]. In addition, the AC50 under setting [2] is 1.16 µM [falling, full curve].

Regarding `Cc1cc(OC(=O)N(C)C)nc(SCc2c(Cl)cccc2Cl)n1`, the cell number change turned out to be 21.4%. Moreover, the AC50 under setting [2] is 6.51 µM [rising, partial curve, poor fit].

In the case of `CC(=O)Nc1ccccc1OC(=O)N(C)C`, the cell number change was -25.1%. Further, the AC50 under setting [2] is 0.184 µM [falling, full curve, poor fit].

For `COC(=O)C1=C(c2ccc(F)cc2OCc2ccccc2)C[C@@H]2CC[C@H]1N2C(=O)NCCO`, the cell number change is -22.5%. Besides, under setting [1], the AC50 was 0.651 µM [falling, full curve, poor fit]. For the same compound, under setting [2], the AC50 was 0.82 µM [falling, single point].

`CN1CCN(c2cccc3c2C(=O)c2ccccc2C3=O)CC1`: the cell number change is -18.6%. The AC50 under setting [2] is 8.2 µM [falling, full curve, poor fit].

For the compound `O=c1[nH]c(=O)n(CCC2=CCCCC2)c(O)c1C=NCCCn1ccnc1`, the cell number change was -12.9%. In addition, the AC50 under setting [2] is 4.61 µM [rising, partial curve].

For `Cc1ccc(-c2nn(Cc3ccccc3)cc2C=O)cc1`, the cell number change is -18%. For the same compound, the AC50 under setting [2] was 8.2 µM [rising, partial curve].

Turning to `O=c1[nH]c(=O)n(-c2ccccc2F)c(O)c1C=NCCC1=CCCCC1`, the cell number change is -41.2%. Besides, under setting [1], the AC50 is 29.1 µM [falling, single point]. Besides, the AC50 under setting [2] is 29.1 µM [falling, single point].

As for `Cc1cccc(N2CCc3c2nc2ccccc2c3N)c1`, the cell number change was 9.74% and -22%. Under setting [1], the AC50 was 0.146 µM [rising, full curve, poor fit]. Moreover, under setting [2], the AC50 was 0.517 µM [rising, full curve].

Turning to `CCOC(=O)CN1C(=O)C2(C(C#N)=C(N)Oc3ccccc32)C(C(=O)OC)=C1C` (configuration not stated), the cell number change is -63.5%. For the same compound, under setting [1], the AC50 is 5.8 µM [falling, full curve]. The AC50 under setting [2] was 1.16 µM [falling, partial curve, poor fit].

Regarding `COc1ccc(C(CNC(=O)Cc2ccc(Cl)c(Cl)c2)N2CCCCC2)cc1` (configuration not stated), the cell number change came to 40.1%. Moreover, the concentration at half-maximal activity (AC50) under setting [1] was 29.1 µM [rising, single point]. Besides, the AC50 under setting [2] is 0.259 µM [rising, full curve, poor fit].

Values taken from PubChem BioAssay AID2685 (National Center for Advancing Translational Sciences (NCATS), 2010).
